The filed quantity is “Percent Effect” (%). How 0% and 100% were set is not recorded. Most values in the screen are low, and negative values occur. The compounds are a random part of those screened. Two or more numbers in one place are separate tests of the same structure; such repeats can differ widely.

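Viability assay of Plasmodium falciparum sporozoites; the read-out is not stated. The concentration is filed as 10 mM, unlikely as a test dose, so the dose is not known. Higher reads as lower viability (inferred: compounds with an IC50 in retests scored well above the rest). Strong results were mostly tested again. Of about 34,000 compounds tested this way, about 280 (0.84%) reached 50% or more in at least one test.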

* CN(Cc1ccccc1CN1CCCC1)c1ncnc2[nH]ccc12 : 1.93%
* Cc1cccc(=O)n1CCCNc1ncnc2c1CCNCC2 : 1.741%
* CC(C)C(=O)NC1CCCN(C(=O)c2ccccc2O)C1 (centres undefined) : 3.404%
* CCC(=O)NCC(=O)N(C)C(c1ccc(Cl)cc1)c1cccnc1 (centres undefined) : 3.755%
* c1ncn(CC2CCCCN2Cc2cn3ccsc3n2)n1 (centres undefined) : 1.726%
* O=C(NCc1nnc2n1CCC2)c1cccc(Br)c1 : 3.374%
* CCN(CC)c1ccc(CNC(=O)c2cnccn2)cn1 : 13.49%
* O=C1CN(C(=O)C2CN(c3ccccc3)CCO2)CCN1 (centres undefined) : 5.028%
* [H][C@@]12CCN(Cc3cc(C)on3)C[C@@]1([H])O[C@@H](c1nc(C3CC3)cs1)C2 : -6.655%
* Cc1csc(NC(=O)NCCCN2CCC(C(N)=O)CC2)n1 : 12.71%
* CC[C@H](N)Cn1nc(-c2cccs2)oc1=O.Cl : -0.5924%
* CCN(Cc1ccc(C(C)=O)cc1)CC1CCOCC1 : 1.59% and 8.934%
* CCn1cc(N2Cc3nc(N)ncc3C2=O)cn1 : 4.605%
* Cc1cc(N2CCCC2c2cc(Nc3cnccn3)nc(C)n2)ncn1 (centres undefined) : 0.8938%
* COc1cc(F)ccc1C(C(=O)O)N1CCN(C2CCCCC2)CC1 (centres undefined) : -15.5%
* CCCc1noc(CCC(=O)N2CCCC2c2cccs2)n1 (centres undefined) : 1.413%
* CN(Cc1nnc(C2CC2)o1)C1CCN(CCCc2cnn(C)c2)C1 (centres undefined) : -22.3%
* C=C(C)C(=O)N1CCC(C(=O)c2cc(C)cnc2N)CC1 : -13.03%
* Cc1nccc(C(=O)NC(COCC(C)C)c2ccco2)n1 (centres undefined) : 6.504%
* [H][C@@]12COC[C@]1([H])[C@@H](OCc1ccccn1)CN2C(=O)c1ccc[nH]1 : -6.404%
* Cc1nc(C)n(CC2CCCN(Cc3ccccc3C#N)C2)n1 (centres undefined) : 4.939%
* Cc1ncc(-c2ccncc2)c(C2CCN(C(=O)c3ccno3)CC2)n1 : -12.79%
* Cc1nc(C)n(CC2CCCN2CCOc2cccc(F)c2)n1 (centres undefined) : -2.399%
* Cc1cc(CN2CCN(C(=O)c3ccc(=O)n(C)c3)CC2)no1 : 2.477%
* NC1CCc2c(ccc(=O)n2CC2CC2)C1 (centres undefined) : -4.448%
* O=C(CN1CCCS1(=O)=O)NCCOc1ccc2c(c1)CCC2 : 0.8052%
* COC(=O)C1CCN(C(=O)Nc2cc(-n3cccc3)ccc2F)CC1 : -14.17%
* CNc1cncc(C2CCCN2C(=O)c2ccc3oc(=O)n(C)c3c2)n1 (centres undefined) : -14.81%
* CC(=O)N1CCCC(C(=O)NCCOc2cc(C)cc(C)c2)C1 (centres undefined) : -1.875%
* [H][C@@]12CS(=O)(=O)C[C@]1([H])N(Cc1ccc(CCC)o1)CCN2C(=O)N(C)C : -11.82%
* O=C(c1cc(C2CC2)on1)N1CCCC(n2cncn2)C1 (centres undefined) : 20.13%
* Cl.O=C1CC2(CCCNC2)C(=O)N1Cc1ccc(Cl)cc1 (centres undefined) : 3.24%
* [H][C@]12CCC[C@@]1(COCC1CCOCC1)CN(C(=O)c1ocnc1C)C2 : -18.29%
* O=C1CC(NCc2ncc[nH]2)CN1CCc1cccc(Cl)c1 (centres undefined) : 1.385%
* [H][C@]12CN(C(=O)C3CC3)CCN1C[C@@H](CO)[C@@H]2c1ccccc1 : -31.34%
* [H][C@@]12CS(=O)(=O)C[C@]1([H])N(C(=O)c1cc3ccccc3cn1)CCN2CCC : -12.9%
* O=C(CCCNCc1ccc(Cl)c2cccnc12)NC1CC1 : -8.872%
* CCOCC1CN(C(=O)Cc2cccs2)Cc2ccnn2C1 (centres undefined) : 17%
* O=C(Cc1cccnc1)N1CCC2(CC1)CCN(C1CCOCC1)C2.O=C(O)C(F)(F)F.O=C(O)C(F)(F)F : -16.36%
* COCCN1C(=O)CCC12CCCN(C(=O)NC(C)C)CC2 (centres undefined) : 14.8%
* Cc1cc(-c2ccc(=O)n(C3CCN(C(=O)C4CC4)CC3)n2)c(C)o1 : 18.73%
* CCc1nnsc1C(=O)NCc1nnc2n1CCCCC2 : 4.211%
* O=C(O)C(F)(F)F.c1csc(CN2CCCn3cnc(COCC4CC4)c3C2)c1 : -4.209%

For reference, 3 entries once more:

{"compound": "O=C1CC(NCc2ncc[nH]2)CN1CCc1cccc(Cl)c1", "stereo": "centres undefined", "effect": 1.385}
{"compound": "Cc1cc(-c2ccc(=O)n(C3CCN(C(=O)C4CC4)CC3)n2)c(C)o1", "effect": 18.73}
{"compound": "CC[C@H](N)Cn1nc(-c2cccs2)oc1=O.Cl", "effect": -0.5924}

Data taken from ChEMBL document CHEMBL3988442, “University of Dundee, Small-Polar-MMV Screening Library” (2021).